# Earlier results as cited in patent publication US20160008376A1, “Compositions, Methods and Uses for Treating Gender-Biased Immune Disorders” (Biocopea Limited, priority 2014, published 2016).
# At least one compound was matched to its structure with a doubt left.
# Settings: cited from earlier work
smiles,measurement,value
C[C@]12CC[C@@H]3c4ccc(O)cc4CC[C@H]3[C@@H]1CC[C@@H]2O [estradiol],potency relative to that of estriol,approximately 80 ×
